This note sets out measurements from publication doi:10.1101/2020.06.18.158576 (bioRxiv, 2020).

Positions count from the first letter of the chain named. In names and notes the source's numbering stands. Results are given in words; binding and its absence hold for the method and conditions named. Some entries that bind do so weakly or less than the wild type.

In experiment [1] the target is T1, KaiB (unlabeled) (Synechococcus elongatus) (UniProt Q79PF5).
T1 sequence: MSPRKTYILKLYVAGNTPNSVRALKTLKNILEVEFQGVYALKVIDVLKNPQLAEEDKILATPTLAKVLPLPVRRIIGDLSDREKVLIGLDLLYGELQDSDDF
Kind of experiment: fluorescence polarisation.

Experiment [2] has as its target T2, CikA (unlabeled) (Synechococcus elongatus) (UniProt Q9KHI5).
T2 sequence: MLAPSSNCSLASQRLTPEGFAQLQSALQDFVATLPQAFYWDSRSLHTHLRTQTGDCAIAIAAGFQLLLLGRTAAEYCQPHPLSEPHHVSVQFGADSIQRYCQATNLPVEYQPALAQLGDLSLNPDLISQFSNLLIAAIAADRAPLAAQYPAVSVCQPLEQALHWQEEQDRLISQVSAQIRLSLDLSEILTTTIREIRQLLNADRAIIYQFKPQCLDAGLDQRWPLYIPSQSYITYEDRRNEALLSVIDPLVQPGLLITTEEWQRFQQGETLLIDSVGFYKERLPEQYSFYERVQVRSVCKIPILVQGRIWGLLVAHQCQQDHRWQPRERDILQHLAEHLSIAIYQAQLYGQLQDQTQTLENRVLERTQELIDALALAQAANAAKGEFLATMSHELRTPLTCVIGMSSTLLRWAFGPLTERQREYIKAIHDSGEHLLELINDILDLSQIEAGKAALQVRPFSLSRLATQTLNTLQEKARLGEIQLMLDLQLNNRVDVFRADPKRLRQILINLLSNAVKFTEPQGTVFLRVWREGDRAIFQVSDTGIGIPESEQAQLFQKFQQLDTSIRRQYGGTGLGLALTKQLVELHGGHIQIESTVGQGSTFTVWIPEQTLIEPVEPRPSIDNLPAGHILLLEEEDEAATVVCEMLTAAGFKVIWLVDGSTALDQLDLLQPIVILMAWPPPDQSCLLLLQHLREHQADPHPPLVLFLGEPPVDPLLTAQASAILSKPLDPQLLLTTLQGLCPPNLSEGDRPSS
Kind of experiment: fluorescence polarisation.

B1: CikA, fluorescently labeled probe (enzyme, UniProt Q9KHI5 1-754)
chain: T2 sequence
modifications: fluorescently labeled using sortase-mediated ligation
On to B1, for which the binding result in experiment [1] is “binds”.

B2: RpaA R121Q mutant (natural protein)
chain: MKPRILVIDDDSAILELVAVNLEMSGYDVRKAEDGIKGQALAVQLVPDLIMLDLMLPRVDGFTVCQRLRRDERTAEIPVLMLTALGQTQDKVEGFNAGADDYLTKPFEVEEMLARVRALLQRTDRIPHAARHSEILSYGPLTLIPERFEAIWFNRTVKLTHLEFELLHCLLQRHGQTVAPSEILKEVWGYDPDDDIETIRVHIRHLRTKLEPDPRHPRYIKTVYGAGYCLELPAETELHQHADQFPSAS
As to B2, the binding result in experiment [2] is recorded as “binds”.

B3: RpaA, fluorescently labeled probe (natural protein)
chain: B2 chain with Q121R
modifications: fluorescently labeled using sortase-mediated ligation
As to B3, in experiment [2], the binding entry is given as “binds”.
